PubChem BioAssay AID1508597 – Cure First, 2020

- Aim: 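Knock-downs altering ovarian cancer cell survival with or without PARP inhibitor rucaparib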 (primary screen)
- Cell system: human ovarian carcinoma lines grown from tumours: OCI-P5x (papillary serous) and OCI-C5x (clear cell)
- Reagents: siRNA pool against human genes, 1.25 pmol siRNA per well
- Timing: 72 h or 96 h, depending on the cell culture
- Treatment: rucaparib 20 µM (about IC30) or vehicle, present until read-out
- Rucaparib or vehicle: Rucaparib
- Cell line: OCI-P5x (serous)
- Measured: 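Luminescent ATP-based viability assay read 72 or 96 h after transfection, depending on culture, given as normalised percent viability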
- Reading the numbers: viability, normalised: higher = more viable cells remaining
- Active means: 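a well counts as a hit if its normalised viability is under 80 percent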
- Calls: active = viability under 80%; inactive = viability 80% or more
This is an unselected part of the about 2,100 reagents, under one of the conditions tested. 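Calls flag viability under 80% in either arm, not effects specific to rucaparib; the reference for percent is not stated.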 Reagent sequences are not shown. Not given: the 100% reference.

no.	Gene	technical replicate	viability, normalised (%)	Outcome
1	MAP3K1 (mitogen-activated protein kinase kinase kinase 1)	1	122	inactive
2	MAP3K1 (mitogen-activated protein kinase kinase kinase 1)	2	115	inactive
3	MAP3K1 (mitogen-activated protein kinase kinase kinase 1)	3	90.3	inactive
4	CSMD3 (CUB and Sushi multiple domains 3)	1	82.9	inactive
5	CSMD3 (CUB and Sushi multiple domains 3)	2	86.7	inactive
6	CSMD3 (CUB and Sushi multiple domains 3)	3	82.2	inactive
7	NSD3 (nuclear receptor binding SET domain protein 3)	1	36.4	active
8	NSD3 (nuclear receptor binding SET domain protein 3)	2	38.9	active
9	NSD3 (nuclear receptor binding SET domain protein 3)	3	32.8	active
10	ADAM17 (ADAM metallopeptidase domain 17)	1	46.3	active
11	ADAM17 (ADAM metallopeptidase domain 17)	2	43.6	active
12	ADAM17 (ADAM metallopeptidase domain 17)	3	46.1	active
13	PRKD1 (protein kinase D1)	1	103	inactive
14	PRKD1 (protein kinase D1)	2	91.4	inactive
15	PRKD1 (protein kinase D1)	3	72.5	active
16	PCDHB10 (protocadherin beta 10)	1	71.2	active
17	PCDHB10 (protocadherin beta 10)	2	64.6	active
18	PCDHB10 (protocadherin beta 10)	3	62.9	active
19	CNR2 (cannabinoid receptor 2)	1	66.3	active
20	CNR2 (cannabinoid receptor 2)	2	79.5	active
21	CNR2 (cannabinoid receptor 2)	3	81.2	inactive
22	BMP2K (BMP2 inducible kinase)	1	77.7	active
23	BMP2K (BMP2 inducible kinase)	2	65.6	active
24	BMP2K (BMP2 inducible kinase)	3	65.8	active
25	TYK2 (tyrosine kinase 2)	1	107	inactive
26	TYK2 (tyrosine kinase 2)	2	104	inactive
27	TYK2 (tyrosine kinase 2)	3	90.5	inactive
28	KAT2B (lysine acetyltransferase 2B)	1	54.6	active
29	KAT2B (lysine acetyltransferase 2B)	2	68.9	active
30	KAT2B (lysine acetyltransferase 2B)	3	49.7	active
31	ENPP2 (ectonucleotide pyrophosphatase/phosphodiesterase 2)	1	56.7	active
32	ENPP2 (ectonucleotide pyrophosphatase/phosphodiesterase 2)	2	62.9	active
33	ENPP2 (ectonucleotide pyrophosphatase/phosphodiesterase 2)	3	69.3	active
34	GUCY2F (guanylate cyclase 2F, retinal)	1	94	inactive
35	GUCY2F (guanylate cyclase 2F, retinal)	2	89.4	inactive
36	GUCY2F (guanylate cyclase 2F, retinal)	3	93.3	inactive
37	GRK7 (G protein-coupled receptor kinase 7)	1	84.7	inactive
38	GRK7 (G protein-coupled receptor kinase 7)	2	78.7	active
39	GRK7 (G protein-coupled receptor kinase 7)	3	72.1	active
